Measured values from US20110059113A1, “GAB2 AMPLIFICATION IN MELANOMA” (The Trustees Of Columbia University In The City Of New York, priority 2008, published 2011).
“Also recorded” adds a separate entry of the source. For at least one compound, name, drawing or mass did not settle the structure.

Assays:
[1] = test system: Gab2-overexpressing primary melanoma cells; experiment: Migration assay (modified Boyden chamber), Gab2-overexpressing primary melanoma cells; format: cell-based; conditions: LY294002 25 μM, 24 hours; p<0.05
[2] = test system: Gab2-overexpressing primary melanoma cells; experiment: Matrigel invasion assay, Gab2-overexpressing primary melanoma cells; format: cell-based; conditions: LY294002 25 μM, 24 hours; p<0.05

SMILES: O=c1cc(N2CCOCC2)oc2c(-c3ccccc3)cccc12 [LY294002]
- tumor cell migration [1]: significant decrease; also recorded: decreased
- tumor cell invasion potential [2]: significant decrease; also recorded: decreased
